# From the RNAGym collection of RNA variant scans (doi:10.1126/science.aae0568)
# Variants at the background level are over-represented here.
# B1: tRNA (parent)
# chain: GUUCCGUUGGCGUAAUGGUAACGCGUCUCCCUCCUAAGGAGAAGACUGCGGGUUCGAGUCCCGUACGGAACG
# Variants of: B1
# Experiment: yeast fitness relative to wild type (ratio to wild type); higher = fitter; tRNA-Arg(CCU), competitive growth, 37 C, YPD
# Procedure, shortened: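 Gene amplicons from the start population and from each of six end populations were read by 100-nucleotide paired-end sequencing. Those end populations came from pooled Saccharomyces cerevisiae strains carrying tRNA-Arg(CCU) gene variants at the native locus, competed in YPD at 37°C for 24 hours. Fitness relative to wild type was worked out from changes in genotype frequencies. Genotypes needed ≥ 100 starting reads, and estimates < 0.5 were set to 0.5.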
row,Variant,yeast fitness
1,A14U G18C G39C C49G C61U,≤ 0.5
2,C31U A45U G56C G63C G67C,≤ 0.5
3,C11U G12A C55A C62G A69C,≤ 0.5
4,G12C A45C C61A,0.686
5,C5A A14U A15C C24G U26A G63A,≤ 0.5
6,C4G U8C C31G C33G G58C C60U,≤ 0.5
7,C5G C30G G52A G67U,≤ 0.5
8,G10A A36C C62G,≤ 0.5
9,C11U G52U C55A,≤ 0.5
10,C5U U8C C27U G48A C55A G63A,≤ 0.5
11,U2A G39C A70G,≤ 0.5
12,C5G A20G C46U,0.638
13,G6A C11G A21G C27G C29U U35G C62U,≤ 0.5
14,C11U U19C C31A G50U C62G,≤ 0.5
15,C11G A45G C62A,≤ 0.5
16,U3G C5U U26A C31A G38A C55A C66U,≤ 0.5
17,G12C A14C A15G C60G,≤ 0.5
18,A15G U32A A43U,0.603
19,G18C C49G C61U,≤ 0.5
20,C4U A21C C27G U53A,≤ 0.5
21,C29A G56C A57G G68U,≤ 0.5

row,Variant,yeast fitness
1,G10C C66G,0.515
2,C5G C22U C31G C60A,≤ 0.5
3,A21C C24U C30U C55U,≤ 0.5
4,G12A C34A G51U G58A G63U,≤ 0.5
5,C4U C33G A57G,≤ 0.5
6,C30G C34U C46U C61A,≤ 0.5
7,A20U A45C C62U C66U,≤ 0.5
8,U8G C11U G48A C66G,≤ 0.5
9,C4G C22G C33U A36C A40U A57C U64A,≤ 0.5
10,G9A G17C A45U A65U A69C,≤ 0.5
11,C4G C29G G41A,≤ 0.5
12,C34G G48A G63A,≤ 0.5
13,G18U A21U G52A,≤ 0.5
14,U3A C4G U8A C24G G52A,≤ 0.5
15,A15G U16C C29A U47C,≤ 0.5
16,A20U G50A G63C,≤ 0.5
17,U8A C34G A65U C66A,≤ 0.5
18,A14G C29G A43C G52A C61A,≤ 0.5
19,C5G A42U,0.683
20,C22G A40C C49G A57U C66U,≤ 0.5
21,C22U C24A U28G U53G U54A G58C,≤ 0.5

row,Variant,yeast fitness
1,G6A U7G C27U C33U,≤ 0.5
2,C11G A21U U32A C55G,≤ 0.5
3,A20U C49G U54C C55A,≤ 0.5
4,C27G C29G C34U C62A G63A,≤ 0.5
5,U35G G67U,≤ 0.5
6,G9U G12C G63A,≤ 0.5
7,A37C G52C G67A,≤ 0.5
8,U2G U7G U16C C62U A65C,≤ 0.5
9,U28A C29G C31U,≤ 0.5
10,A15G C33G,0.732
11,G25A C29G A43C C61A A69U,≤ 0.5
12,A14G G18C C31A,≤ 0.5
13,C5G A20G A42G C55U C66G,≤ 0.5
14,C24A A36C G52C A57U C66U,≤ 0.5
15,C5A U8C G38A,≤ 0.5
16,A40C G51A C62U,≤ 0.5
17,C4G A14U G23A G48A,≤ 0.5
18,C29A A37U C46G A70U,≤ 0.5
19,U13A C27G C30G C60U,≤ 0.5
20,C5U G17C C24G G38C G51C U59G,≤ 0.5
21,U19G G52C C66U,≤ 0.5

row,Variant,yeast fitness
1,C4G A14U C31U A40G A42G,≤ 0.5
2,A37G C66U A69U,0.674
3,C11A C27G U35A A43U U54C A65G,0.659
4,U47A G50A,0.831
5,U26G C29A C30G C31G C46U,≤ 0.5
6,C5G C46A G48A U64G,0.546
7,A15C U19A G39A,0.519
8,C5A C24U C55U,≤ 0.5
9,U16A G18C U26A A65C,≤ 0.5
10,G9C C46G C62G A69G,≤ 0.5
11,G12A A20G U28A C55A G56A,0.537
12,G25A G58C A65G,1.04
13,C11G C29U G52A,≤ 0.5
14,A15G A69C,0.999
15,U53C C55U,≤ 0.5
16,A20G C29U C34U G50A C55G C66A,≤ 0.5
17,A21G C66U,0.858
18,G6C U16G C31U G38C C60U,≤ 0.5
19,A15U G23A C49G G63C,≤ 0.5
20,G18A A36U C61A,≤ 0.5
